Values from PubChem BioAssay AID686938 (Drosophila RNAi Screening Center, 2013).

- Assay: 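Fly genes required for calcium entry once internal stores are emptied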 (primary screen)
- Cell system: Drosophila S2R+ cells
- Reagents: long dsRNA against Drosophila genes, about 0.25 µg dsRNA per well, roughly 10,000 cells
- Time to read-out: 5 days of knock-down before the calcium assay
- Treatment: thapsigargin (SERCA pump blocker) to empty calcium stores; entry signal taken 4 min after adding it
- Measured: 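Per-well fluo-4 fluorescence in two replicates, unnormalised, measured in resting cells and 4 min after store depletion by the SERCA blocker thapsigargin; ratio of the two present in few wells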
- Reading the numbers: calcium entry signal: higher = stronger calcium signal after store depletion; entry to resting ratio: higher = more calcium entry relative to resting level; resting calcium signal: higher = higher resting calcium signal
- Units: calcium entry signal in fluorescence units; resting calcium signal in fluorescence units
- Active means: 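Called when the plate z-score of the entry-to-rest ratio, mean of duplicates, falls below −3; wells with low overall dye signal (Fmax z below −2) or more than five off-targets excluded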
- Calls: active = strongly reduced calcium entry; inactive = no strong reduction
The deposit covers about 23,000 reagents; shown is a random part of those with a known target gene and a result. Of all reagents, 75 (0.33%) were called active. 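Raw plate signals without normalisation; calls rest on plate z-scores that were not deposited; ratio present for only 364 wells.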 Reagents against one gene are numbered here. Names joined by + are all predicted targets of the reagent. Not stated in the record: the dose of the treatment.

Target gene	dsRNA no.	calcium entry signal, replicate 1	calcium entry signal, replicate 2	entry to resting ratio	resting calcium signal, replicate 1	resting calcium signal, replicate 2	Outcome
CG43666 + CG43667 + CG43668	1	3.21e7	6.60e7		1.38e7	2.47e7	inactive
CG43666 + CG43667 + CG43668	2	5.63e7	4.10e7		2.58e7	1.86e7	inactive
CG1116	1	3.60e7	2.83e7		1.75e7	1.28e7	inactive
Cyp6t3	1	2.33e7	3.12e7		1.27e7	1.45e7	inactive
CG7950 + Rpp14a	1	3.65e7	4.21e7		1.57e7	1.86e7	inactive
Mlp60A	1	3.96e7	4.81e7		1.94e7	1.96e7	inactive
Mlp60A	2	3.24e7	8.43e7		1.60e7	3.29e7	inactive
Mlp60A	3	5.60e7	3.94e7		3.20e7	1.85e7	inactive
bsf	1	3.83e7			1.68e7		inactive
ymp	1	2.90e7	2.95e7		1.36e7	1.46e7	inactive
ymp	2	3.09e7	3.86e7		1.42e7	1.75e7	inactive
CG13471	1	5.33e7	6.96e7		2.42e7	2.76e7	inactive
CR33317	1	4.37e7	4.77e7		2.16e7	1.95e7	inactive
Nup43	1	3.69e7	3.61e7		3.96e7	1.77e7	inactive
Gr59d	1	4.23e7	3.17e7		1.95e7	1.29e7	inactive
CG13577	1	3.27e7	4.70e7		1.82e7	2.12e7	inactive
nanos	1	3.65e7	4.37e7		4.81e7	1.90e7	inactive
GstE13	1	5.38e7	4.36e7		2.30e7	1.86e7	inactive
pzg	1	3.10e7	4.14e7		1.63e7	2.81e7	inactive
BicC	1	4.72e7	3.67e7		2.01e7	1.80e7	inactive
CG13476	1	5.18e7	7.12e7		2.38e7	2.67e7	inactive
CG9933	1	5.62e7	3.68e7		2.45e7	1.70e7	inactive
Sf3b3	1	1.24e7	1.69e7		8.58e6	1.13e7	active
Cyp4p2	1	2.39e7	2.12e7		9.89e6	1.04e7	inactive
CG34217	1	3.39e7	5.44e7		1.67e7	2.32e7	inactive
Arl4	1	4.99e7	5.65e7	2	2.44e7	2.18e7	inactive
stac	1	4.54e7	3.87e7		2.05e7	1.84e7	inactive
stac	2	4.52e7	3.89e7		2.27e7	1.73e7	inactive
stac	3	3.74e7	8.36e7		1.72e7	3.01e7	inactive
CG17030	1	3.19e7	5.95e7		1.49e7	2.33e7	inactive
Vha55	1	3.92e7	5.34e7		2.32e7	3.03e7	inactive
CG1791	1	4.27e7	3.95e7		1.88e7	1.76e7	inactive
CG13599	1	4.45e7	4.17e7		2.13e7	1.78e7	inactive
CG18128	1	4.36e7	4.18e7		2.07e7	1.80e7	inactive
Arf1	1	2.17e7	3.26e7		1.19e7	2.50e7	inactive
Ir8a	1	3.20e7	3.40e7		1.58e7	1.66e7	inactive
Ir8a	2	3.07e7	3.30e7		1.49e7	1.49e7	inactive
CG14926	1	3.67e7	4.40e7		1.78e7	1.66e7	inactive
Dronc	1	5.38e7	3.35e7		3.06e7	1.48e7	inactive
Z600	1	3.42e7	5.36e7		1.77e7	2.09e7	inactive
caz	1	4.17e7	6.58e7		1.91e7	3.50e7	inactive
caz	2	2.94e7	3.19e7		1.57e7	1.42e7	inactive
caz	3	5.18e7	4.25e7		2.54e7	1.72e7	inactive
RpL12	1	1.01e7	8.94e6		8.21e6	6.76e6	inactive
Grl36a	1	3.93e7	4.16e7		2.36e7	1.90e7	inactive
CG5070	1	3.61e7	3.08e7		1.97e7	1.54e7	inactive
CG33489	1	3.87e7	3.59e7		1.95e7	1.69e7	inactive
asRNA:Eig63F-2 + Eip63F-1	1	3.46e7	3.24e7		2.05e7	1.52e7	inactive
Hrd3	1	5.05e7	4.50e7		2.35e7	1.93e7	inactive
CG7179	1	2.24e7	3.12e7		1.06e7	1.36e7	inactive
Acp33A + CG15841 (retired record)	1	3.93e7	4.58e7		1.80e7	1.90e7	inactive
CG31437	1	2.80e7	4.95e7		1.34e7	2.51e7	inactive
CG15628	1	4.19e7	3.88e7		2.52e7	2.11e7	inactive
CG15628	2	2.75e7	3.30e7		1.40e7	1.52e7	inactive
Ttc26	1	4.97e7	2.39e7		2.18e7	1.24e7	inactive
CG5641	1	3.37e7	4.40e7		1.48e7	1.89e7	inactive
CG17344	1	6.87e7	5.61e7		3.35e7	2.30e7	inactive
Lap1	1	3.42e7	4.59e7		1.75e7	2.06e7	inactive

Not a retest: 4 of the entries above.
Target gene	dsRNA no.	calcium entry signal, replicate 1	calcium entry signal, replicate 2	entry to resting ratio	resting calcium signal, replicate 1	resting calcium signal, replicate 2	Outcome
CG33489	1	3.87e7	3.59e7		1.95e7	1.69e7	inactive
asRNA:Eig63F-2 + Eip63F-1	1	3.46e7	3.24e7		2.05e7	1.52e7	inactive
Hrd3	1	5.05e7	4.50e7		2.35e7	1.93e7	inactive
CG7179	1	2.24e7	3.12e7		1.06e7	1.36e7	inactive
